PubChem BioAssay AID1259405 | NCATS | 2018

Purpose: 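Silenced genes that increase secreted GFP made by CHO cells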 (primary screen)
Cells: Chinese hamster CHO-K1 ovary cells with stable secreted eGFP expression
Reagent: single siRNA against mouse genes, 0.8 pmol siRNA per well (2 µl of 400 nM stock)
Timing: 3 days
Read-out: 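Percent of the per-plate non-targeting control median for intracellular GFP per well by laser scanning cytometry and for cell viability by ATP luminescence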
Scale: GFP, % of control: higher = more GFP per well, higher productivity; viability (ATP), % of control: higher = more viable cells (more ATP)
Call rule: 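Called active when intracellular GFP, relative to negative control, is at or above 120%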
This is an unselected part of about 50,000 deposited reagents. Over the whole deposit, about 4,000 (8%) got an active call. 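Mouse siRNA library applied to hamster cells; one well for each siRNA.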 Unmarked entries are inactive. The numbers tell different reagents against one gene apart. Reagent sequences are not shown.

target gene	siRNA no.	GFP, % of control	viability (ATP), % of control
Fbxl19	1	87.9	69.8
Fbxl19	2	78.5	42.7
Fbxl19	3	91	67
Cdh16	1	69.4	65
Cdh16	2	36.2	66.5
Cdh16	3	59.5	66.4
AB124611	1	95.2	75.1
AB124611	2	89.2	56.3
AB124611	3	72.8	94.6
Edar	1	93.6	94.7
Edar	2	87	71.4
Matn4	1	72.4	95.4
Matn4	2	104	92.6
Prop1	1	110	83.7
Prop1	2	68.4	78.6
Alox12	1	91.8	107
Alox12	2	101	103
Alox12	3	37.5	36.1
Cd3e	1	125 (active)	104
Cd3e	2	70.7	86.6
Cd3e	3	61.5	84.4
2900092C05Rik	1	86	83.7
2900092C05Rik	2	102	68.7
2900092C05Rik	3	63.1	49.9
Slc2a8	1	64.2	103
Slc2a8	2	71.7	90.7
Slc2a8	3	13	14
Rell2	1	119	45.6
Rell2	2	126 (active)	64.8
Rell2	3	115	82.2
Cmklr2	1	46.8	30.6
Cmklr2	2	72.8	60
Cmklr2	3	69.8	61.1
Med12	1	79.3	86.4
Med12	2	105	146
Tab2	1	117	128
Tab2	2	114	95.7
Ccng1	1	62.1	76
Ccng1	2	75.2	75.8
Agmo	1	151 (active)	113
Agmo	2	75.5	80
Agmo	3	70.1	92.1
B2m	1	80.3	75.6
B2m	2	87.1	74.9
B2m	3	60.2	53.7
Ppp1r35	1	29.1	25.1
Ppp1r35	2	54.5	54.2
Ppp1r35	3	89.6	121
Dnaaf6rt	1	23.4	67.1
Dnaaf6rt	2	52.9	74.7
Dnaaf6rt	3	46.9	85.9
Aarsd1	1	146 (active)	103
Aarsd1	2	66.7	70.5
Aarsd1	3	74	59.1
Tes	1	23.4	47.2
Tes	2	38.9	51.5
Dpep2	1	71.8	67.5
Dpep2	2	98.8	89.3
Dpep2	3	136 (active)	118
Ccdc22	1	73.6	109
Ccdc22	2	72.1	47.9
Ccdc22	3	63.1	79.4
Dennd10	1	113	86.1
Dennd10	2	29.5	39.2
Dennd10	3	82.5	76.2
Slit2	1	64.4	82
Slit2	2	56.7	61.5
Slit2	3	76.2	78
Arpc5l	1	43.6	49.4
Arpc5l	2	52.5	58.2
Arpc5l	3	48.9	35.9
Atg7	1	148 (active)	112
Atg7	2	64.3	54.3
Atg7	3	53.2	64.5
Crat	1	168 (active)	87.5
Crat	2	149 (active)	102
Crat	3	120	96.7
Stmnd1	1	51	88.3
Stmnd1	2	51.4	56
Stmnd1	3	78	71.3
Vash2	1	80	39.9
Vash2	2	66.1	62.4
Vash2	3	115	138
Wnt11	1	103	69.5
Wnt11	2	97.7	57.7
Wnt11	3	44.7	67.7
Cmtm2a	1	66.3	60.2
Cmtm2a	2	62.9	78.6
Cmtm2a	3	102	118
Nol7	1	95.1	75
Nol7	2	92.2	88.8
Nol7	3	83.1	83.6
Fosl2	1	72.8	82
Fosl2	2	93.1	93.6
Ppp6r3	1	110	82.1
Ppp6r3	2	60.4	71.3
Ppp6r3	3	86.6	87.6
Strc	1	85.1	82.2
Strc	2	72.3	90.4
Strc	3	79.1	65.4
Hdac2	1	70.8	74.8
Hdac2	2	92.5	108
Nms	1	52.6	47
Nms	2	69.6	76.6
Nms	3	101	61.6
Hmox1	1	78.7	73.8
Hmox1	2	49.3	36.2
Hmox1	3	72	66.9

Reprinted from above (10 entries):
target gene	siRNA no.	GFP, % of control	viability (ATP), % of control
2900092C05Rik	2	102	68.7
2900092C05Rik	3	63.1	49.9
Slc2a8	1	64.2	103
Slc2a8	2	71.7	90.7
Slc2a8	3	13	14
Rell2	1	119	45.6
Rell2	2	126 (active)	64.8
Rell2	3	115	82.2
Cmklr2	1	46.8	30.6
Cmklr2	2	72.8	60
